Measurements reported in PubChem BioAssay AID602196 (INSERM, 2012).
Screen: 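Knock-downs that protect lung cancer cells from cisplatin or sensitise them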. Cell system: human A549 lung cancer cells. Reagents: siRNA pair against human genes. Duration: 48 h transfection before cisplatin; time from cisplatin to read-out not stated. Conditions: cisplatin at a dose killing half of control-siRNA cells; exact dose and duration not given. Detection: 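Shift in cisplatin death relative to control siRNA, from -50 (all cells die) to +50 (no cells die); siRNAs harmful on their own scored 0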. Reading the numbers: two-siRNA summed score (-2 to +2): higher = both siRNAs protect from cisplatin killing; -2 means both sensitise; mean protection from cisplatin (shift in death) and protection from cisplatin (shift in death), siRNA C: higher = protection from cisplatin killing. Hit rule: 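Each siRNA scores 0 if harmful alone by LDH or WST-1, otherwise +1 if it reduces and -1 if it increases cisplatin killing; a gene is active when both siRNAs agree (sum +2 or -2)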. Calls: active = both siRNAs shift cisplatin killing the same way; inactive = no consistent shift, or siRNA harmful alone.
The whole screen tested about 23,000 reagents; this is a random part of them. In the full data, 455 (2%) are marked active. 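Active includes both protection and sensitisation; some change values fall well beyond the stated -50 to +50 range.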 Further read-outs or replicates are left out here. Not stated in the record: the amount of reagent.

target	two-siRNA summed score (-2 to +2)	mean protection from cisplatin (shift in death) (%)	protection from cisplatin (shift in death), siRNA C (%)	outcome
LOC166994 (retired record)	1	9.8	5.5	inactive
SPAG8	1	9.4	12.6	inactive
MRM3	0	-10.5	14.5	inactive
ABCC11	0	10.7	7.7	inactive
ARHGAP19	0	-5.3	-10.5	inactive
FAM193A	0	4.6	-0.4	inactive
UTP14A	0	18.1	32.5	inactive
ZFP36L1	1	17.9	-2.6	inactive
IFT140	0	3.5	-1	inactive
BTBD16	1	11	2.2	inactive
LOC340192	0	4.8	10.3	inactive
FANCL	0	9.9	-0.7	inactive
METTL22	0	13.1	1.3	inactive
PKMYT1	-1	-3.3	-7.5	inactive
DNAJB6P1	0	9	1.1	inactive
IZUMO2	0	-1	-1.4	inactive
POM121L12	0	-7.8	-18.1	inactive
LOC441604	1	7.8	1.1	inactive
FAM149A	1	14	18.1	inactive
MRPL39	0	14.8	10.1	inactive
EMCN	0	1.6	4.5	inactive
EEF1AKMT2	1	8.7	27.4	inactive
AEBP2	0	1.8	1.1	inactive

In a second layout: 2 of the entries above
{"target":"LOC441604","two-siRNA summed score (-2 to +2)":1,"mean protection from cisplatin (shift in death) (%)":7.8,"protection from cisplatin (shift in death), siRNA C (%)":1.1,"outcome":"inactive"}
{"target":"FAM149A","two-siRNA summed score (-2 to +2)":1,"mean protection from cisplatin (shift in death) (%)":14,"protection from cisplatin (shift in death), siRNA C (%)":18.1,"outcome":"inactive"}
